This test has as its target FLAG-Keap1 (UniProt Q9Z2X8). In words: co-IP.

Protein sequences, listed by entry. Tags and fused reporters are not part of them.
UniProt Q9Z2X8: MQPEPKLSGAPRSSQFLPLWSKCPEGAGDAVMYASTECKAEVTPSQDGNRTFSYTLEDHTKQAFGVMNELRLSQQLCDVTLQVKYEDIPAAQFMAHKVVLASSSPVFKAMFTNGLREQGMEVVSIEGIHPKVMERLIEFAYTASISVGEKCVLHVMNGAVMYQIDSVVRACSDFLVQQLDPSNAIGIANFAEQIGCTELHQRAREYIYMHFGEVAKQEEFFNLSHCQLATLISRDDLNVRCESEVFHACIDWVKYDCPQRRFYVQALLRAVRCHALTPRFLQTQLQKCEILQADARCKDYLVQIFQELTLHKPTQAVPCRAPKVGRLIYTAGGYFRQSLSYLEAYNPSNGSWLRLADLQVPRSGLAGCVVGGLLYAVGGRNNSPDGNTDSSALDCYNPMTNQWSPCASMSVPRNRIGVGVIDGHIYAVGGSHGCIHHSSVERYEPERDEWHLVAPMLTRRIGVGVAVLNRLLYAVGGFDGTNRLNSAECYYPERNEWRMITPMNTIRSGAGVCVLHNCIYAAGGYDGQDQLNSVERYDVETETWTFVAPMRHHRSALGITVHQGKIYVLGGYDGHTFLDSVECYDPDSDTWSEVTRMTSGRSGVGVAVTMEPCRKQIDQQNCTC

No constants are given. Whether binding was seen depends on the method and setting. In cells and extracts the contact can be indirect. Some binding calls cover weakened binding; strength is not graded here.

B1: Nrf2 (endogenous, Huh1 cells) (protein, UniProt Q16236 1-605)
chain: MMDLELPPPGLPSQQDMDLIDILWRQDIDLGVSREVFDFSQRRKEYELEKQKKLEKERQEQLQKEQEKAFFAQLQLDEETGEFLPIQPAQHIQSETSGSANYSQVAHIPKSDALYFDDCMQLLAQTFPFVDDNEVSSATFQSLVPDIPGHIESPVFIATNQAQSPETSVAQVAPVDLDGMQQDIEQVWEELLSIPELQCLNIENDKLVETTMVPSPEAKLTEVDNYHFYSSIPSMEKEVGNCSPHFLNAFEDSFSSILSTEDPNQLTVNSLNSDATVNTDFGDEFYSAFIAEPSISNSMPSPATLSHSLSELLNGPIDVSDLSLCKAFNQNHPESTAEFNDSDSGISLNTSPSVASPEHSVESSSYGDTLLGLSDSEVEELDSAPGSVKQNGPKTPVHSSGDMVQPLSPSQGQSTHVHDAQCENTPEKELPVSPGHRKTPFTKDKHSSRLEAHLTRDELRAKALHIPFPVEKIINLPVVDFNEMMSKEQFNEAQLALIRDIRRRGKNKVAAQNCRKRKLENIVELEQDLDHLKDEKEKLLKEKGENDKSLHLLKKQLSTLYLEVFSMLRDEDGKPYSPSEYSLQQTRDGNVFLVPKSKKPDVKKN
For B1, the binding entry is listed as “binds”.

The record behind these values is article PMC4931237.
